Values from PubChem BioAssay AID602196 (INSERM, 2012)

Assay: 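Genes whose knock-down alters cisplatin killing of lung cancer cells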
Cell system: human A549 lung cancer cells
Reagents: siRNA pair against human genes
Timing: 48 h transfection before cisplatin; time from cisplatin to read-out not stated
Treatment: cisplatin at a dose killing half of control-siRNA cells; exact dose and duration not given
Read-out: 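Cisplatin cell death as a shift from the 50% death seen with control siRNA; siRNAs toxic or growth-blocking alone scored 0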
Scale: two-siRNA summed score (-2 to +2): higher = both siRNAs protect from cisplatin killing; -2 means both sensitise
Active means: 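Each siRNA scores 0 if harmful alone by LDH or WST-1, otherwise +1 if it reduces and -1 if it increases cisplatin killing; a gene is active when both siRNAs agree (sum +2 or -2)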
Calls: active = both siRNAs shift cisplatin killing the same way; inactive = no consistent shift, or siRNA harmful alone
In all, the deposit lists about 23,000 reagents; this is a random part of them. Over the whole deposit, 455 (2%) are marked active. 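Active includes both protection and sensitisation; some change values fall well beyond the stated -50 to +50 range.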 Further read-outs or replicates are left out here. The record does not give: the amount of reagent.

LOC401289 [SID131504996] → two-siRNA summed score (-2 to +2): 0; outcome: inactive
LOC402196 [SID131507567] → two-siRNA summed score (-2 to +2): 0; outcome: inactive
ACTL6B (actin like 6B) [SID131503047] → two-siRNA summed score (-2 to +2): 0; outcome: inactive
WNT11 (Wnt family member 11) [SID131520098] → two-siRNA summed score (-2 to +2): 1; outcome: inactive
TBC1D17 (TBC1 domain family member 17) [SID131512439] → two-siRNA summed score (-2 to +2): 0; outcome: inactive
PPME1 (protein phosphatase methylesterase 1) [SID131520342] → two-siRNA summed score (-2 to +2): 1; outcome: inactive
KIAA0657 [SID131518463] → two-siRNA summed score (-2 to +2): 0; outcome: inactive
TMEM33 (transmembrane protein 33) [SID131512584] → two-siRNA summed score (-2 to +2): 0; outcome: inactive
ST8SIA2 (ST8 alpha-N-acetyl-neuraminide alpha-2,8-sialyltransferase 2) [SID131501753] → two-siRNA summed score (-2 to +2): -1; outcome: inactive
SYNGAP1 (synaptic Ras GTPase activating protein 1) [SID131518803] → two-siRNA summed score (-2 to +2): 0; outcome: inactive
TMEM242 (transmembrane protein 242) [SID131516579] → two-siRNA summed score (-2 to +2): 0; outcome: inactive
IL20 (interleukin 20) [SID131505034] → two-siRNA summed score (-2 to +2): 0; outcome: inactive
CNKSR3 (CNKSR family member 3) [SID131508665] → two-siRNA summed score (-2 to +2): 0; outcome: inactive
CDK1 (cyclin dependent kinase 1) [SID131519942] → two-siRNA summed score (-2 to +2): 1; outcome: inactive
LOC440086 [SID131518659] → two-siRNA summed score (-2 to +2): 0; outcome: inactive
HLTF (helicase like transcription factor) [SID131510846] → two-siRNA summed score (-2 to +2): 0; outcome: inactive
CLCN3 (Cl-/H+ antiporter 3) [SID131500383] → two-siRNA summed score (-2 to +2): -2; outcome: active
KATNAL1 (katanin catalytic subunit A1 like 1) [SID131508768] → two-siRNA summed score (-2 to +2): 0; outcome: inactive
KATNAL1 (katanin catalytic subunit A1 like 1) [SID131512338] → two-siRNA summed score (-2 to +2): 0; outcome: inactive
CNN3 (calponin 3) [SID131510370] → two-siRNA summed score (-2 to +2): 0; outcome: inactive
LOC441313 [SID131501505] → two-siRNA summed score (-2 to +2): -1; outcome: inactive
SHC3 (SHC adaptor protein 3) [SID131511529] → two-siRNA summed score (-2 to +2): 0; outcome: inactive
OR9G4 (olfactory receptor family 9 subfamily G member 4) [SID131517622] → two-siRNA summed score (-2 to +2): 0; outcome: inactive
VMO1 (vitelline membrane outer layer 1 homolog) [SID131517544] → two-siRNA summed score (-2 to +2): 0; outcome: inactive
CA3 (carbonic anhydrase 3) [SID131511312] → two-siRNA summed score (-2 to +2): 0; outcome: inactive
GOLGA1 (golgin A1) [SID131514255] → two-siRNA summed score (-2 to +2): 0; outcome: inactive
E2F7 (E2F transcription factor 7) [SID131501475] → two-siRNA summed score (-2 to +2): -1; outcome: inactive
H3C7 (H3 clustered histone 7) [SID131522697] → two-siRNA summed score (-2 to +2): 1; outcome: inactive
WDR81 (WD repeat domain 81) [SID131511188] → two-siRNA summed score (-2 to +2): 0; outcome: inactive
APLN (apelin) [SID131514184] → two-siRNA summed score (-2 to +2): 0; outcome: inactive
FAIM (Fas apoptotic inhibitory molecule) [SID131515039] → two-siRNA summed score (-2 to +2): 0; outcome: inactive
ARHGAP31 (Rho GTPase activating protein 31) [SID131503093] → two-siRNA summed score (-2 to +2): 0; outcome: inactive
FOXO1 (forkhead box O1) [SID131508565] → two-siRNA summed score (-2 to +2): 0; outcome: inactive
LOC442386 [SID131522893] → two-siRNA summed score (-2 to +2): 1; outcome: inactive
SLC35H1 [SID131502839] → two-siRNA summed score (-2 to +2): 0; outcome: inactive
STPG2 (sperm tail PG-rich repeat containing 2) [SID131515448] → two-siRNA summed score (-2 to +2): 0; outcome: inactive
CTC1 (CST telomere replication complex component 1) [SID131505907] → two-siRNA summed score (-2 to +2): 0; outcome: inactive
MCM2 (minichromosome maintenance complex component 2) [SID131505290] → two-siRNA summed score (-2 to +2): 0; outcome: inactive
DAAM1 (dishevelled associated activator of morphogenesis 1) [SID131519892] → two-siRNA summed score (-2 to +2): 1; outcome: inactive
NCAPD3 (non-SMC condensin II complex subunit D3) [SID131521231] → two-siRNA summed score (-2 to +2): 1; outcome: inactive

Entries above whose target name begins with L or l:
LOC401289 [SID131504996] → two-siRNA summed score (-2 to +2): 0; outcome: inactive
LOC402196 [SID131507567] → two-siRNA summed score (-2 to +2): 0; outcome: inactive
LOC440086 [SID131518659] → two-siRNA summed score (-2 to +2): 0; outcome: inactive
LOC441313 [SID131501505] → two-siRNA summed score (-2 to +2): -1; outcome: inactive
LOC442386 [SID131522893] → two-siRNA summed score (-2 to +2): 1; outcome: inactive
